Laboratory results as given in paper PMC11088158.
These are yes or no findings as the source states them, for the method shown. Binding seen in cells or lysates may run through a third protein. A yes stands for co-enrichment or nearness to the bait. Other partners may have been found.

Sequences of proteins named here, by UniProt entry; tags and fusion partners are left off.
UniProt P18653: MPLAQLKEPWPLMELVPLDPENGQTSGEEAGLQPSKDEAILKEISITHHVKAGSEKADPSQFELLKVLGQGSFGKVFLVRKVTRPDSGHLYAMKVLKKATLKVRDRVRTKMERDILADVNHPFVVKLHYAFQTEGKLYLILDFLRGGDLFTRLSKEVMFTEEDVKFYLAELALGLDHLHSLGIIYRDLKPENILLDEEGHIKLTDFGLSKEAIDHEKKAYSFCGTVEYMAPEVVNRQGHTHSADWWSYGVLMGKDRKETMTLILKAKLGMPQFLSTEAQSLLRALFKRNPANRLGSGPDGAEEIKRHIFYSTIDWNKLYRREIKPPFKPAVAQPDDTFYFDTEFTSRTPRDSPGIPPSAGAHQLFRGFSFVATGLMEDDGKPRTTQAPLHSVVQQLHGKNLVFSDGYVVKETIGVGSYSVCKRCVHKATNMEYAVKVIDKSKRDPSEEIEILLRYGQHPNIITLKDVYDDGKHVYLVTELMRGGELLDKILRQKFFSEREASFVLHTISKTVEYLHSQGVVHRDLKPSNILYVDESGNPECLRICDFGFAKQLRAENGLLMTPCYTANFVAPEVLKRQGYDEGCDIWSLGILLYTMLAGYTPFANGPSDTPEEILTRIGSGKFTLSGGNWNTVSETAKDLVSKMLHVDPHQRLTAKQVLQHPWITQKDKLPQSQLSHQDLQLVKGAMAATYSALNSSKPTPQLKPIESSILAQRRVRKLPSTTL

T1: NLRP4E (mouse (endogenous in oocytes)) (UniProt Q66X19)
T1 sequence: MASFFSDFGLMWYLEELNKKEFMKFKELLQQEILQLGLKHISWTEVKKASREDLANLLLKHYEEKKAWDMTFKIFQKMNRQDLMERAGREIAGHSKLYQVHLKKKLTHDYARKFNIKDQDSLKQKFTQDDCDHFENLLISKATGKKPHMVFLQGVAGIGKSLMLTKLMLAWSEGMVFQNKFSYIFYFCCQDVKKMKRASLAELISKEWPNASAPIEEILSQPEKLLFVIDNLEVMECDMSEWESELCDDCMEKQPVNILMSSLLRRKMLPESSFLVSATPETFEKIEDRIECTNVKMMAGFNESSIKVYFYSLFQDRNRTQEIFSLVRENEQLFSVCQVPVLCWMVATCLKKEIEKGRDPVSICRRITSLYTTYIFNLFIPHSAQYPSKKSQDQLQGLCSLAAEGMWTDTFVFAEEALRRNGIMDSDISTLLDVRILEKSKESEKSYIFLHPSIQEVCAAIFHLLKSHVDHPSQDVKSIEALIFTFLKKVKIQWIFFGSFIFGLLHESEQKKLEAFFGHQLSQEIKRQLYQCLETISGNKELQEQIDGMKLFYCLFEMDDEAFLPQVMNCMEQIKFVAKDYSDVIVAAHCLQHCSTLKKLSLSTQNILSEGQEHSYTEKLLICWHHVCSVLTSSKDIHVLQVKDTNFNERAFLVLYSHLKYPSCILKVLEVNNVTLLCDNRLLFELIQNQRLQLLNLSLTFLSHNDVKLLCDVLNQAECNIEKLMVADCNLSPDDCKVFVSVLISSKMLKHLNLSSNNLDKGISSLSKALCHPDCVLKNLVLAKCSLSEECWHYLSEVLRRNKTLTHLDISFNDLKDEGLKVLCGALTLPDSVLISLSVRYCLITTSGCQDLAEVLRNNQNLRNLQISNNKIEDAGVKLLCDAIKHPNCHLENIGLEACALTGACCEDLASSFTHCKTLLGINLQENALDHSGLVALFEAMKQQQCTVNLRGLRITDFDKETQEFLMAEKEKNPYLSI

B1: G protein-regulated inducer of neurite outgrowth 1 (GRIN1) (protein, UniProt Q3UNH4 1-932)
chain: MRDCCSSPKAIPAPPRHALDQSLGMDPRHTSSSGAAEGASCSERPAGSLACPSPNCSPLPETPRAHGALTSDNSGTTLFGKPEPMSSAEATPTASEIRNPVFSGKMDGNSLKQADSTSTRKEEAGSLRNEESMLKGKAEPMIYGKGEPGTVGRVDCTASGAENSGSLGKVDMPCSSKVDIVSPGGDNAGSLRKVETISSGKMDPKTENVMHSRRERPGSTGEGDLVSLRENDMKPPDNTDSASTKKTDPEFSGKLTPGSSGKTELVSSVTVAPVTSENVNPVCSGGAGPAAVGNSETLSSVKKDPQLLGKKEAVSSGEGGSVSVRMAETVSARQPEGMFPAKTDSTSSNSTGPSGRADPVSLRNSELVSPVKPERLSSGQAERVSLVKTETLSSGKEDPRSSRRVDHTTVTGNMQTSQKGNPESSGKTDLGSSSSGDTRSLGTWGSLSAAKAEVTEGKGDPQPWKKASLPASEKTDPLASSKAGSASQGKAETVSPGEVDAMTLGKTVPTSSGKTALVSPGKVDLMTSERAEGIPELQASEKGNPVNSTRVDTGATGSTEPKSGVKVITQIPGATSPGKVETPSLQKEQPQLSEKTDPSRKVDPPTTVEPVSLGKADSASPSPRKAESQTSAKTVPQAPDKATSSLRQSDGTPYSSAQPQRDTRSIGSLPEREPSASTSQKDLAAAAAQKSPSAEAAAPPPGPRTRDNFTKAPSWDAGAPPPREDAGTQAGAQACVSVAVSPMSPQDGAGGPAFSFQAAPRAPSPAPRPPSRRDAGLQVSLGAAETRSVATGPMTPQAAAPPAVPPVFPEVRVRPGSVLAAALAPQEATEPVRDVSWDEKGMTWEVYGASMEVEVLGMAIQKHLERQIEEHGRQGAPAPAPPPAVRAGPGRAGSVRTAPAEGAAKRPPGLFRALLQSVRRPRCCSRAGPTAE
B2: radial spoke head protein 6 homolog A (RSHL1) (protein, UniProt Q8CDR2 1-708)
chain: MGEPPPNPDPSQTRRASQGSERARSQEYSQPLLTIPEDGLNRPPPQRGSRSSQGSQDLQGTGLPHWPQRSSLVPDVQGDEGTEYHQSMPLGYTPGFPMEFSQQGYLDDSRMMEQFPQGQDLLEQLESTYQGSASGILGQLNLYPREDEIFSQDTQHGPYLRDDPSLHLRPSDLGFMPIVGEVPDPEPRELAIQNAKAYLLRTSMSCNLSLYEHLVNLLTKILNQRPEDPLSILESLNRTMQWEWFHPKLDTLRDDPEMQPTYEMAEKQKALFIRGGGEGEQEMEEEVTDSPVPNIMETAFYFEQAGVGLSSDESFRIFLALKQLVEQQPIHMCRFWGKILGLSRSYLVAEVEFREGEEEGEEEEVEEMMEGGEVLETHGEEEGEEDEEKVVDSVPKPQWKPPPIIPKEESRSGTNKYLYFVCNEPGRPWTRLPHVTPAQIVCARKIKKFFTGFLDTPVISYPPFPGNEANYLRAQIARISAATHISPLGFYQFGEEEGDEEEEGGAGRDSFEENPDFEGIPVLELVDSMANWVHHTQHILPQGRCTWVNPLQKTEEEEELGEEEEKADEAMEEVEQEVGPPLLTPLSEDAEIMHLSPWTTRLSCSLSPQYSVAIVRSNLWPGAYAYATGKKFENIYIGWGHKYSPENFNPMLPALIQQEYPSGPEITEMSDPTVEEEQALKAAQEQALAAAEEEEEDEEEEEDEDLED

Biological target: T1, NLRP4E (mouse (endogenous in oocytes))
Test: affinity purification with mass spectrometry; IP with NLRP4E antibody or control IgG on protein A/G from mouse oocyte lysate; SDS-PAGE, silver staining; bands stronger in the NLRP4E lane cut and identified by MALDI-TOF-MS, proteins of the control bands subtracted

Molecule | binding
ribosomal protein S6 kinase alpha-1 (RSK) (from UniProt P18653 1-724) | binds
glycogen phosphorylase (mouse (endogenous in oocytes)) | binds
B1 | binds
B2 | binds
